Assay results reported in patent US20160069900A1.
Results are given in words; binding and its absence hold for the method and conditions named. Some results given as binding are weak or reduced against the parent protein; the word gives no strength.

Chains of the proteins cited; added tags and fusions are not shown.
UniProt Q9NZQ7: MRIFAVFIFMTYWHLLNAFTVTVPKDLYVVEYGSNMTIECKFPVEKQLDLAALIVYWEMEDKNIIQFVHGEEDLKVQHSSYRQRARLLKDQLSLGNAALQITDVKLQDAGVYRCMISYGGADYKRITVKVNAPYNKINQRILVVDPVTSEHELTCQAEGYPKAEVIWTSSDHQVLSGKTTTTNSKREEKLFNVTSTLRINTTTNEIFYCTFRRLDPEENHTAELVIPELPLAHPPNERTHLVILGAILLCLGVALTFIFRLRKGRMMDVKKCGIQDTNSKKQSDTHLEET

B1: Monoclonal Antibody 22C3 (antibody, V domains shown)
VH: QVHLQQSGAELAKPGASVKMSCKASGYTFTSYWIHWIKQRPGQGLEWIGYINPSSGYHEYNQKFIDKATLTADRSSSTAYMHLTSLTSEDSAVYYCARSGWLIHGDYYFDFWGQGTTLTVSS
VL: DIVMSQSPSSLAVSAGEKVTMTCKSSQSLLHTSTRKNYLAWYQQKPGQSPKLLIYWASTRESGVPDRFTGSGSGTDFTLTISSVQAEDLAVYYCKQSYDVVTFGAGTKLELK
B2: Monoclonal Antibody 5F9 (antibody, V domains shown)
VH: EVHLQQSGPELVKPGASVKISCKASGAPFTDFNIHWMKQSHGGSLEWIGSIYPYNGNTNYNQKFKNKATLTVDDSSITAYMEFRSLTSEDSAFYYCARGYIVTTAWFAYWGQGTLVTVSA
VL: DIVMTQSHKFMSTSVGDRVSITCKASQDTSTAVAWYQQKPGQSPKLLIYWASTRHTGVPDRFTGSASGIDFTLTISSLQAEDLALYYCQQHYRTPWTFGGGTKLEIK

Biological target: soluble PD-L1 in serum test samples (human) (UniProt Q9NZQ7)
Test: depletion of 1/5 diluted serum with antibody-coupled agarose beads, read by ECL sandwich immunoassay

Row | Binder | binding
1 | B1 | binds
2 | B2 | binds
